Record: PubChem BioAssay AID493246 (Drosophila RNAi Screening Center, 2011)
The screen tested about 21,000 reagents; below is a random part of those that have a named target and a result. In the full data, 429 (2%) got an active call. 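Values are raw and not normalised between plates; calls rest on per-plate z-scores that were not deposited.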 A number with no mark means an inactive call. A plus sign joins genes that one reagent is predicted to hit. Reagent sequences are not shown. Not given: the amount of reagent, the time to read-out.

- Test: 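Genes fly cells need to grow and stay alive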 (primary screen)
- Cells: Drosophila Kc and S2R+ cells
- Reagent: long dsRNA against Drosophila genes
- Measured: 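Cell number per well after knock-down, printed as raw plate values; calls were based on per-plate z-scores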
- Direction: Kc cell number and S2R+ cell number: higher = more cells remaining
- Rule for the call: 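Active when the per-plate z-score of cell number is 3 or more in the direction of fewer cells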

target gene | DRSC id | Kc cell number, rep 1 | Kc cell number, rep 2 | S2R+ cell number, rep 1 | S2R+ cell number, rep 2
CG31550 | DRSC12197 | 1.46e6 | 1.57e6 | 1.31e6 | 1.41e6
CG31550 | DRSC12198 | 1.59e6 | 1.76e6 | 1.41e6 | 1.44e6
CG3071 | DRSC18526 | 5.11e5 | – | 8.34e5 | –
puf | DRSC15875 | 1.65e6 | 1.71e6 | 8.51e5 | 9.62e5
CG10761 | DRSC17753 | 1.52e6 | 1.50e6 | 1.05e6 | 1.17e6
CG17141 | DRSC15178 | 1.50e6 | 1.43e6 | 9.61e5 | 1.04e6
CG11889 + CG11891 | DRSC14426 | 1.45e6 | 1.51e6 | 1.06e6 | 1.14e6
CG11889 + CG11891 | DRSC14427 | 1.63e6 | 1.72e6 | 1.03e6 | 1.09e6
CG8851 | DRSC00718 | 1.55e6 | 1.29e6 | 1.08e6 | 1.30e6
CG31917 + Tfb5 | DRSC02362 | 1.82e6 | 1.73e6 | 1.12e6 | 1.27e6
CG31917 + Tfb5 | DRSC02363 | 1.87e6 | 1.93e6 | 1.26e6 | 1.46e6
CG8119 | DRSC20083 | 1.61e6 | 1.59e6 | 1.05e6 | 1.21e6
CG8586 | DRSC07218 | 1.42e6 | 1.45e6 | 1.16e6 | 1.28e6
CG31674 | DRSC03208 | 1.73e6 | 1.87e6 | 1.45e6 | 4.59e5
Dbx | DRSC08270 | 1.54e6 | 1.34e6 | 9.91e5 | 1.21e6
Dbx | DRSC08271 | 1.48e6 | 1.29e6 | 9.81e5 | 1.27e6
Dbx | DRSC08394 | 1.51e6 | 1.29e6 | 1.01e6 | 1.15e6
dsd | DRSC13829 | 1.18e6 | 1.56e6 | 1.13e6 | 1.16e6
dsd | DRSC15850 | 5.08e5 | – | 8.41e5 | –
Cyp6d5 | DRSC16634 | 1.46e6 | 1.52e6 | 1.18e6 | 1.21e6
FASN3 | DRSC20882 | 1.52e6 | 1.53e6 | 1.11e6 | 1.24e6
E(z) | DRSC11147 | 1.30e6 | 1.38e6 | 1.28e6 | 1.21e6
upd2 | DRSC19969 | 1.74e6 | 1.82e6 | 1.19e6 | 1.33e6
CG42445 | DRSC10858 | 1.53e6 | 1.42e6 | 1.42e6 | 1.32e6

Just “S2R+ cell number, rep 1”, for 3 of the entries above:
FASN3 [DRSC20882] = 1.11e6
E(z) [DRSC11147] = 1.28e6
upd2 [DRSC19969] = 1.19e6
